The target in the experiment is T1, Ref2-3C-SII (yeast) (UniProt P42073).
T1 sequence: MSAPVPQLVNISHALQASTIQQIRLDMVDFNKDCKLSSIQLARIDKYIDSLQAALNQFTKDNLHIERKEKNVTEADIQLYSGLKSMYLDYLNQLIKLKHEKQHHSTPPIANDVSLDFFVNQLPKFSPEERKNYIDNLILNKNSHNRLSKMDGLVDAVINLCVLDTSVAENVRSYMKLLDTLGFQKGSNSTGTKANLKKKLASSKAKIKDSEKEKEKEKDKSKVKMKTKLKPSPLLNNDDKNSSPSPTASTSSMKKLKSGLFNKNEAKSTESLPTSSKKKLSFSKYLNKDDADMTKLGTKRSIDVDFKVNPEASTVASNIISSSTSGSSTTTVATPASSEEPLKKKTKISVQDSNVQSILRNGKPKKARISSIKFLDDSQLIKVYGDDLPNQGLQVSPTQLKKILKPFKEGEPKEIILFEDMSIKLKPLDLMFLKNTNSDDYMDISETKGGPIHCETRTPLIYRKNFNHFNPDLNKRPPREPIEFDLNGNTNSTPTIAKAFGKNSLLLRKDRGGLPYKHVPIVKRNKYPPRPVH
The experiment can be described thus: co-purification (StrepTactin affinity, anion exchange, size exclusion); StrepII tag on Ref2 as bait; Sf9 cells co-infected with two baculoviruses (nuclease and polymerase modules; phosphatase module); purified complex analysed by SDS-PAGE. On the technique in general: Size exclusion chromatography separates by hydrodynamic size, large species first.

Sequences of proteins named here, by UniProt entry; tags and fusion partners are left off.
UniProt P32598: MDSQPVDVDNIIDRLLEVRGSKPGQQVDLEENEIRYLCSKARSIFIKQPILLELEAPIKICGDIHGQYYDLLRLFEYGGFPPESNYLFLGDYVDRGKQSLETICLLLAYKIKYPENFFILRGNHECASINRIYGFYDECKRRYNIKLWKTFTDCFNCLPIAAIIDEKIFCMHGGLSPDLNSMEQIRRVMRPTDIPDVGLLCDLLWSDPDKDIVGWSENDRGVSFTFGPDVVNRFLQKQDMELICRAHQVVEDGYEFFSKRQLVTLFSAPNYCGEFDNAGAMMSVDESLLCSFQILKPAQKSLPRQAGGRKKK
UniProt P53538: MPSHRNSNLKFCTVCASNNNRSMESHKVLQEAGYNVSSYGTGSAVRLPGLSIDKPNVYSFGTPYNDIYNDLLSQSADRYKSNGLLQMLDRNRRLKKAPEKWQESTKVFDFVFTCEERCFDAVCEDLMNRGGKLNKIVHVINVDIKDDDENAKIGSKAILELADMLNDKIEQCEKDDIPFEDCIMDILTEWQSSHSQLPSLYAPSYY

From PMC8559680 come the findings set out here.

Results are given in words; binding and its absence hold for the method and conditions named. Some entries that bind do so weakly or less than the wild type.

As for “Glc7 (from UniProt P32598 1-312) (enzyme)”, the binding result is “binds”.

On to “Ssu72 (from UniProt P53538 1-206) (enzyme)”, for which the binding entry is “binds”.
